{"source": "patent US20230357310A1", "about": "“Saponin derivatives with improved therapeutic window” (priority 2019, published 2023)", "tested_on": "EGFR expressing cells (A431)", "experiment": "Endosomal escape enhancing activity: saponin titration + 5 pM EGFdianthin (MTS cell viability)", "format": "cell-based", "conditions": "A431, Table A6", "data": [{"smiles": "CC1OC(OC2C(C)OC(OC(=O)[C@]34CCC(C)(C)CC3C3=CCC5[C@@]6(C)CC[C@H](OC7OC(C(=O)NC(C)(CO)CO)C(O)C(OC8OCC(O)C(O)C8O)C7OC7OC(CO)C(O)C(O)C7O)[C@@](C)(C=O)C6CC[C@@]5(C)[C@]3(C)C[C@H]4O)C(OC3OC(C)C(OC4OCC(O)C(OC5OC(CO)C(O)C(O)C5O)C4O)C(O)C3O)C2O)C(O)C(OC2OCC(O)C(O)C2O)C1O", "note": "(stereo partly shown) [SO1861-(Ac—OH)-(Glu-AMPD)]", "values": [{"measurement": "Ratio: IC50 hemolysis/IC50 activity", "result": 46}, {"measurement": "Ratio: IC50 toxicity/IC50 activity", "result": ">33"}]}, {"smiles": "CC(=O)OC1C(C)OC(OC2C(C)OC(OC(=O)[C@]34CCC(C)(C)CC3C3=CCC5[C@@]6(C)CC[C@H](OC7OC(C(=O)NCCN8C(=O)C=CC8=O)C(O)C(OC8OCC(O)C(O)C8O)C7OC7OC(CO)C(O)C(O)C7O)[C@@](C)(CO)C6CC[C@@]5(C)[C@]3(C)C[C@H]4O)C(OC3OC(C)C(OC4OCC(O)C(OC5OC(CO)C(O)C(O)C5O)C4O)C(O)C3O)C2O)C(O)C1OC1OCC(O)C(O)C1O", "note": "(stereo partly shown) [SO1861-(Glu-AEM)-(Ald-OH)]", "values": [{"measurement": "Ratio: IC50 hemolysis/IC50 activity", "result": ">50"}, {"measurement": "Ratio: IC50 toxicity/IC50 activity", "result": ">50"}]}, {"smiles": "CC1OC(OC2C(C)OC(OC(=O)[C@]34CCC(C)(C)CC3C3=CCC5[C@@]6(C)CC[C@H](OC7OC(C(=O)NC(C)(CO)CO)C(O)C(OC8OCC(O)C(O)C8O)C7OC7OC(CO)C(O)C(O)C7O)[C@@](C)(CO)C6CC[C@@]5(C)[C@]3(C)C[C@H]4O)C(OC3OC(C)C(OC4OCC(O)C(OC5OC(CO)C(O)C(O)C5O)C4O)C(O)C3O)C2O)C(O)C(OC2OCC(O)C(O)C2O)C1O", "note": "(stereo partly shown) [SO1861-(Ald-OH)-(Ac—OH)-(Glu-AMPD)]", "values": [{"measurement": "Ratio: IC50 hemolysis/IC50 activity", "result": "Not active/"}, {"measurement": "Ratio: IC50 toxicity/IC50 activity", "result": "Not active/"}]}, {"smiles": "CC1OC(OC2C(C)OC(OC(=O)[C@]34CCC(C)(C)CC3C3=CCC5[C@@]6(C)CC[C@H](OC7OC(C(=O)NCCN8C(=O)C=CC8=O)C(O)C(OC8OCC(O)C(O)C8O)C7OC7OC(CO)C(O)C(O)C7O)[C@@](C)(CO)C6CC[C@@]5(C)[C@]3(C)C[C@H]4O)C(OC3OC(C)C(OC4OCC(O)C(OC5OC(CO)C(O)C(O)C5O)C4O)C(O)C3O)C2O)C(O)C(OC2OCC(O)C(O)C2O)C1O", "note": "(stereo partly shown) [SO1861-(Glu-AEM)-(Ald-OH)-(Ac—OH)]", "values": [{"measurement": "Ratio: IC50 hemolysis/IC50 activity", "result": "Not active/"}, {"measurement": "Ratio: IC50 toxicity/IC50 activity", "result": "Not active/"}]}, {"smiles": "CC1OC(OC2C(C)OC(OC(=O)C34CCC(C)(C)CC3C3=CCC5C6(C)CCC(OC7OC(C(=O)NC(C)(CO)CO)C(O)C(OC8OCC(O)C(O)C8O)C7OC7OC(CO)C(O)C(O)C7O)C(C)(C=NNC(=O)CCCCCN7C(=O)C=CC7=O)C6CCC5(C)C3(C)CC4O)C(OC3OC(C)C(OC4OCC(O)C(OC5OC(CO)C(O)C(O)C5O)C4O)C(O)C3O)C2O)C(O)C(OC2OCC(O)C(O)C2O)C1O", "note": "(stereo not shown) [SO1861-(Ald-EMCH)-(Ac—OH)-(Glu-AMPD)]", "values": [{"measurement": "Ratio: IC50 hemolysis/IC50 activity", "result": "Not active/"}, {"measurement": "Ratio: IC50 toxicity/IC50 activity", "result": "Not active/"}]}, {"smiles": "CC1OC(OC2C(C)OC(OC(=O)[C@]34CCC(C)(C)CC3C3=CCC5[C@@]6(C)CC[C@H](OC7OC(C(=O)NCCN8C(=O)C=CC8=O)C(O)C(OC8OCC(O)C(O)C8O)C7OC7OC(CO)C(O)C(O)C7O)[C@@](C)(C=O)C6CC[C@@]5(C)[C@]3(C)C[C@H]4O)C(OC3OC(C)C(OC4OCC(O)C(OC5OC(CO)C(O)C(O)C5O)C4O)C(O)C3O)C2O)C(O)C(OC2OCC(O)C(O)C2O)C1O", "note": "(stereo partly shown) [SO1861-(Glu-AEM)-(Ac—OH)]", "values": [{"measurement": "Ratio: IC50 hemolysis/IC50 activity", "result": 25}, {"measurement": "Ratio: IC50 toxicity/IC50 activity", "result": ">25"}]}, {"smiles": "CC1OC(OC2C(C)OC(OC(=O)C34CCC(C)(C)CC3C3=CCC5C6(C)CCC(OC7OC(C(=O)O)C(O)C(OC8OCC(O)C(O)C8O)C7OC7OC(CO)C(O)C(O)C7O)C(C)(C=NNC(=O)CCCCCN7C(=O)C=CC7=O)C6CCC5(C)C3(C)CC4O)C(OC3OC(C)C(OC4OCC(O)C(OC5OC(CO)C(O)C(O)C5O)C4O)C(O)C3O)C2O)C(O)C(OC2OCC(O)C(O)C2O)C1O", "note": "(stereo not shown) [SO1861-(Ald-EMCH)-(Ac—OH)]", "values": [{"measurement": "Ratio: IC50 hemolysis/IC50 activity", "result": ">100"}, {"measurement": "Ratio: IC50 toxicity/IC50 activity", "result": ">10"}]}, {"smiles": "CC(=O)OC1C(C)OC(OC2C(C)OC(OC(=O)[C@]34CCC(C)(C)CC3C3=CCC5[C@@]6(C)CC[C@H](OC7OC(C(=O)O)C(O)C(OC8OCC(O)C(O)C8O)C7OC7OC(CO)C(O)C(O)C7O)[C@@](C)(CO)C6CC[C@@]5(C)[C@]3(C)C[C@H]4O)C(OC3OC(C)C(OC4OCC(O)C(OC5OC(CO)C(O)C(O)C5O)C4O)C(O)C3O)C2O)C(O)C1OC1OCC(O)C(O)C1O", "note": "(stereo partly shown) [SO1861-Ald-OH]", "values": [{"measurement": "Ratio: IC50 hemolysis/IC50 activity", "result": 50}, {"measurement": "Ratio: IC50 toxicity/IC50 activity", "result": 11}]}]}
